Assay results as given in PubChem BioAssay AID2685 (National Center for Advancing Translational Sciences (NCATS), 2010).
The other results are listed elsewhere or left out. Shown are side measurements of this screen, not its main read-out; they come without a call. Compounds called inactive in the main read-out are mostly missing here. Potencies come from curve fits of mixed quality, noted in brackets.

Test: qHTS Assay for Lipid Storage Modulators in Drosophila S3 Cells;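 for cell number change: cells counted by Cell Tracker Red CMTPX staining in the red channel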
Details: BODIPY lipid droplet fluorescence, 18-24 h; for cell number change: measured here: cell count max response, cells fed with added oleic acid
How it was run: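 Laser-scanning cytometry quantifies lipid droplet accumulation (500–530 nm total intensity; droplet/cell object ratio) in oleic acid-fed (400 uM added) Drosophila S3 cells treated with a concentration series. 20 uM Triacsin C defined 100% inhibition.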

[1] = measured here: lipid fluorescence (Fed channel) AC50, cells fed with added oleic acid
[2] = measured here: cell number channel AC50, cells fed with added oleic acid

SMILES | cell number change [%] | AC50 [1] | AC50 [2]
Cc1ccc(S[C@@H](CCN2CC[C@H](O)CCC2=O)c2ccccc2)cc1 | 12.9 | – | –
COc1ccccc1CCN1CCCC(CN(C)C(=O)CCC(=O)N(C)C)C1 (configuration not stated) | 9.62 | 0.731 µM [rising, single point] | –
CCOC(=O)CCc1nc2ccccc2[nH]c1=O | -8.83 | 0.731 µM [falling, full curve] | –
CC(=O)N1CCN(Cc2nc3cc(NC(=O)c4ccc(Cl)cc4)ccc3n2C)CC1 | 260 | – | 16.4 µM [rising, partial curve]
Cc1c(Cl)cnc(NC(=O)COC(=O)c2ccc3c(c2)OCO3)c1Cl | 0.23 | – | 1.84 µM [rising, partial curve]
CCC1(CC)Cc2ccccc2C(=O)N1 | -16.5 | – | –
CCN(CC)S(=O)(=O)c1cccc(C(=O)Oc2cccnc2)c1 | -19.4 | 0.00517 µM [falling, full curve, poor fit] | –
COCCC(=O)N1CCC(n2nccc2NC(=O)c2ccccc2C)CC1 | – | 0.58 µM [falling, single point] | –
CCOc1ccc2nc(SCC(=O)NCc3ccco3)sc2c1 | – | 6.51 µM [falling, single point] | 4.61 µM [falling, single point]
COC(=O)[C@@H](NC(=O)N1CCN(C(=O)C2COc3ccccc3O2)CC1)C(C)C (some centres not stated) | 1.91 | 6.51 µM [rising, single point] | –
CC(NC(=O)CSCc1ccccc1Br)c1ccccc1 (configuration not stated) | 10.6 | 20.6 µM [rising, single point] | –
Cc1cc(NC(=O)COC(=O)C2CCCN2C(=O)c2cccs2)no1 (configuration not stated) | 2.16 | 1.46 µM [falling, full curve, poor fit] | –
CCN1C(=O)/C(=C/C2=Cc3ccccc3OC2C)SC1=S (configuration not stated) | -0.727 | 2.91 µM [falling, partial curve] | –
O=C(c1cccc(S(=O)(=O)N2CCOCC2)c1)N1CCN(c2ccccc2)CC1 | 20.2 | 9.2 µM [rising, partial curve, poor fit] | –
COc1ccccc1-c1ccc(SCC(=O)NC2CCCC2)nn1 | 54.4 | – | 29.1 µM [rising, single point]
Cc1ccnc(NC(=O)CCC(=O)N(CC(=O)NCC2CCCO2)Cc2ccc(F)cc2)c1 (configuration not stated) | 6.47 | – | –
CCCOc1ccccc1Nc1nnc(C)c(=O)[nH]1 | -10.9 | – | 0.103 µM [falling, full curve, poor fit]
COC(C(=O)NNS(=O)(=O)c1ccccc1[N+](=O)[O-])c1ccccc1 (configuration not stated) | -13.5 | 29.1 µM [rising, single point] | –

Already shown: entries from further up.
SMILES | cell number change [%] | AC50 [1] | AC50 [2]
COc1ccccc1CCN1CCCC(CN(C)C(=O)CCC(=O)N(C)C)C1 (configuration not stated) | 9.62 | 0.731 µM [rising, single point] | –
CCOC(=O)CCc1nc2ccccc2[nH]c1=O | -8.83 | 0.731 µM [falling, full curve] | –
